Measurements reported in PubChem BioAssay AID1259405 (NCATS, 2018).

Screen: 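Knock-downs that lift recombinant protein yield in hamster ovary cells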 (primary screen)
Cell system: Chinese hamster CHO-K1 ovary cells with stable secreted eGFP expression
Reagents: single siRNA against mouse genes, 0.8 pmol siRNA per well (2 µl of 400 nM stock)
Timing: 3 days
Detection: 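Percent of the per-plate non-targeting control median for intracellular GFP per well by laser scanning cytometry and for cell viability by ATP luminescence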
Reading the numbers: GFP, % of control: higher = more GFP per well, higher productivity; viability (ATP), % of control: higher = more viable cells (more ATP)
Hit rule: 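Called active when intracellular GFP, relative to negative control, is at or above 120%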
Here is one part, drawn at random, of about 50,000 deposited reagents. About 4,000 of them (8%) count as active. 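Mouse siRNA library applied to hamster cells; one well for each siRNA.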 Reagents against one gene are numbered here. No sequences are given here.

| target | reagent no. | GFP, % of control | viability (ATP), % of control | call |
| --- | --- | --- | --- | --- |
| Or5a1 (olfactory receptor family 5 subfamily A member 1) | 1 | 104 | 62.4 | inactive |
| Or5a1 (olfactory receptor family 5 subfamily A member 1) | 2 | 113 | 84.3 | inactive |
| Or5a1 (olfactory receptor family 5 subfamily A member 1) | 3 | 64.3 | 45.1 | inactive |
| Zmat1 (zinc finger, matrin type 1) | 1 | 38.2 | 37.8 | inactive |
| Zmat1 (zinc finger, matrin type 1) | 2 | 64.2 | 72 | inactive |
| Zmat1 (zinc finger, matrin type 1) | 3 | 62.9 | 92.8 | inactive |
| Yae1d1 (Yae1 domain containing 1) | 1 | 115 | 102 | inactive |
| Yae1d1 (Yae1 domain containing 1) | 2 | 66.4 | 72.3 | inactive |
| Yae1d1 (Yae1 domain containing 1) | 3 | 158 | 83.5 | active |
| Chst14 (carbohydrate sulfotransferase 14) | 1 | 127 | 107 | active |
| Chst14 (carbohydrate sulfotransferase 14) | 2 | 62.1 | 82.7 | inactive |
| Chst14 (carbohydrate sulfotransferase 14) | 3 | 94.2 | 83.9 | inactive |
| Aatk (apoptosis-associated tyrosine kinase) | 1 | 92.8 | 34 | inactive |
| Aatk (apoptosis-associated tyrosine kinase) | 2 | 121 | 88 | active |
| Aatk (apoptosis-associated tyrosine kinase) | 3 | 131 | 91.7 | active |
| Ly6i (lymphocyte antigen 6 family member I) | 1 | 66.2 | 68.4 | inactive |
| Ly6i (lymphocyte antigen 6 family member I) | 2 | 123 | 82.5 | active |
| Ly6i (lymphocyte antigen 6 family member I) | 3 | 122 | 67.3 | active |
| Prps1 (phosphoribosyl pyrophosphate synthetase 1) | 1 | 100 | 67.4 | inactive |
| Elob (elongin B) | 1 | 80.3 | 87.4 | inactive |
| Elob (elongin B) | 2 | 90.5 | 68.8 | inactive |
| Lyl1 (lymphoblastomic leukemia 1) | 1 | 62.5 | 43.6 | inactive |
| Lyl1 (lymphoblastomic leukemia 1) | 2 | 80.4 | 68.8 | inactive |
| Lyl1 (lymphoblastomic leukemia 1) | 3 | 76.4 | 85.7 | inactive |
| Ccm2 (cerebral cavernous malformation 2) | 1 | 80.4 | 60.4 | inactive |
| Ccm2 (cerebral cavernous malformation 2) | 2 | 94.9 | 87.1 | inactive |
| Ccm2 (cerebral cavernous malformation 2) | 3 | 74.8 | 90.2 | inactive |
| Fbln7 (fibulin 7) | 1 | 95.6 | 103 | inactive |
| Fbln7 (fibulin 7) | 2 | 80.4 | 84.2 | inactive |
| Fbln7 (fibulin 7) | 3 | 37.6 | 42.5 | inactive |
| Slc51b | 1 | 36.3 | 17.6 | inactive |
| Slc51b | 2 | 116 | 73 | inactive |
| Slc51b | 3 | 80 | 81.1 | inactive |
| Grin2c (glutamate receptor, ionotropic, NMDA2C (epsilon 3)) | 1 | 72.3 | 84 | inactive |
| Grin2c (glutamate receptor, ionotropic, NMDA2C (epsilon 3)) | 2 | 112 | 89.8 | inactive |
| Grin2c (glutamate receptor, ionotropic, NMDA2C (epsilon 3)) | 3 | 75.9 | 52 | inactive |
| Tnfrsf21 (tumor necrosis factor receptor superfamily, member 21) | 1 | 108 | 84.5 | inactive |
| Tnfrsf21 (tumor necrosis factor receptor superfamily, member 21) | 2 | 73.8 | 51.4 | inactive |
| Tnfrsf21 (tumor necrosis factor receptor superfamily, member 21) | 3 | 141 | 98.9 | active |
| Or6z1 (olfactory receptor family 6 subfamily Z member 1) | 1 | 123 | 74.6 | active |
| Or6z1 (olfactory receptor family 6 subfamily Z member 1) | 2 | 53.5 | 67.1 | inactive |
| Or6z1 (olfactory receptor family 6 subfamily Z member 1) | 3 | 116 | 105 | inactive |
| Rasal3 (RAS protein activator like 3) | 1 | 150 | 67.9 | active |
| Rasal3 (RAS protein activator like 3) | 2 | 88.7 | 70.1 | inactive |
| Rasal3 (RAS protein activator like 3) | 3 | 74.2 | 42.7 | inactive |
| Cnot3 (CCR4-NOT transcription complex, subunit 3) | 1 | 24.5 | 35.3 | inactive |
| Cnot3 (CCR4-NOT transcription complex, subunit 3) | 2 | 57.3 | 78 | inactive |
| Rnd2 (Rho family GTPase 2) | 1 | 149 | 136 | active |
| Rnd2 (Rho family GTPase 2) | 2 | 122 | 127 | active |
| Rnd2 (Rho family GTPase 2) | 3 | 77.2 | 65.5 | inactive |
| Chac1 (ChaC, cation transport regulator 1) | 1 | 91.9 | 92 | inactive |
| Chac1 (ChaC, cation transport regulator 1) | 2 | 56.6 | 60.1 | inactive |
| Chac1 (ChaC, cation transport regulator 1) | 3 | 63.9 | 81.5 | inactive |
| Macroh2a1 (macroH2A.1 histone) | 1 | 87.6 | 88.3 | inactive |
| Macroh2a1 (macroH2A.1 histone) | 2 | 79.8 | 80.1 | inactive |
| Macroh2a1 (macroH2A.1 histone) | 3 | 97.8 | 85.8 | inactive |
| Or4c125 (olfactory receptor family 4 subfamily C member 125) | 1 | 91.7 | 50.6 | inactive |
| Or4c125 (olfactory receptor family 4 subfamily C member 125) | 2 | 63.5 | 79.9 | inactive |
| Or4c125 (olfactory receptor family 4 subfamily C member 125) | 3 | 19.4 | 57.6 | inactive |

Laid out differently: entries from further up.
{"target": "Ly6i (lymphocyte antigen 6 family member I)", "reagent no.": 3, "GFP, % of control": 122, "viability (ATP), % of control": 67.3, "call": "active"}
{"target": "Prps1 (phosphoribosyl pyrophosphate synthetase 1)", "reagent no.": 1, "GFP, % of control": 100, "viability (ATP), % of control": 67.4, "call": "inactive"}
{"target": "Elob (elongin B)", "reagent no.": 1, "GFP, % of control": 80.3, "viability (ATP), % of control": 87.4, "call": "inactive"}
{"target": "Elob (elongin B)", "reagent no.": 2, "GFP, % of control": 90.5, "viability (ATP), % of control": 68.8, "call": "inactive"}
{"target": "Lyl1 (lymphoblastomic leukemia 1)", "reagent no.": 1, "GFP, % of control": 62.5, "viability (ATP), % of control": 43.6, "call": "inactive"}
{"target": "Lyl1 (lymphoblastomic leukemia 1)", "reagent no.": 2, "GFP, % of control": 80.4, "viability (ATP), % of control": 68.8, "call": "inactive"}
{"target": "Lyl1 (lymphoblastomic leukemia 1)", "reagent no.": 3, "GFP, % of control": 76.4, "viability (ATP), % of control": 85.7, "call": "inactive"}
{"target": "Ccm2 (cerebral cavernous malformation 2)", "reagent no.": 1, "GFP, % of control": 80.4, "viability (ATP), % of control": 60.4, "call": "inactive"}
